PubChem BioAssay AID1259308 | NCATS – 2017
The deposit covers about 59,000 reagents; below is an unselected part. Over the whole deposit, about 1,510 (2.6%) got an active call. 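Calls use total luciferase alone and ignore viability, so some active siRNAs may act by altering cell number.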 The numbers tell different reagents against one gene apart. Not all columns of the deposit are shown. Reagent sequences are not shown.

Aim: 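Genes whose loss raises luciferase production in HEK293 cells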 (primary screen)
System: human HEK293 embryonic kidney cells stably expressing firefly luciferase (HEK-CMV-Luc2-Hygro)
Reagent: single siRNA against human genes, 0.8 pmol siRNA per well
Duration: 72 h
Measurement: 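Reporter luminescence and viable-cell signal on separate replicate plates, given as percent of non-targeting control and median/MAD z-scores, plus per-cell luciferase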
Scale: total luciferase, z-score and total luciferase, % of control: higher = more reporter protein produced; luciferase per cell, z-score: higher = more reporter output per viable cell
Hit rule: 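An siRNA counts as active if its total luciferase robust z-score exceeds 3; genes with two or more such siRNAs out of three were retested with fresh siRNAs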
Meaning of the calls: active = raised luciferase; inactive = no rise

| gene | siRNA no. | total luciferase, z-score | total luciferase, % of control | luciferase per cell, z-score | outcome |
| --- | --- | --- | --- | --- | --- |
| ACSL4 | 1 | -0.797 | 66 | -0.733 | inactive |
| ACSL4 | 2 | 0.283 | 87.5 | 1.3 | inactive |
| ACSL4 | 3 | -0.292 | 76.1 | -0.582 | inactive |
| SMCO2 | 1 | 1.44 | 110 | 1.26 | inactive |
| SMCO2 | 2 | 2.63 | 134 | 2.12 | inactive |
| SMCO2 | 3 | -1.22 | 57.7 | -0.991 | inactive |
| IRS2 | 1 | 1.24 | 106 | 1.96 | inactive |
| IRS2 | 2 | -0.274 | 76.4 | 1.28 | inactive |
| IRS2 | 3 | -0.799 | 66 | -0.371 | inactive |
| SDF2 | 1 | 2.74 | 136 | 2.76 | inactive |
| SDF2 | 2 | 0.77 | 97.2 | 1.92 | inactive |
| SDF2 | 3 | -0.462 | 72.7 | -0.327 | inactive |
| C15orf61 | 1 | 1.15 | 105 | 0.835 | inactive |
| C15orf61 | 2 | -0.362 | 74.7 | -0.357 | inactive |
| C15orf61 | 3 | -1.12 | 59.6 | -1.22 | inactive |
| CYP51A1 | 1 | -1.32 | 55.6 | -1.05 | inactive |
| CYP51A1 | 2 | 0.959 | 101 | 0.209 | inactive |
| CYP51A1 | 3 | -0.803 | 65.9 | -0.497 | inactive |
| KCTD13 | 1 | 0.505 | 91.9 | 0.423 | inactive |
| KCTD13 | 2 | -0.789 | 66.2 | 0.119 | inactive |
| KCTD13 | 3 | 0.722 | 96.2 | 1.82 | inactive |

Targets above whose target name begins with C or c:
| gene | siRNA no. | total luciferase, z-score | total luciferase, % of control | luciferase per cell, z-score | outcome |
| --- | --- | --- | --- | --- | --- |
| C15orf61 | 1 | 1.15 | 105 | 0.835 | inactive |
| C15orf61 | 2 | -0.362 | 74.7 | -0.357 | inactive |
| C15orf61 | 3 | -1.12 | 59.6 | -1.22 | inactive |
| CYP51A1 | 1 | -1.32 | 55.6 | -1.05 | inactive |
| CYP51A1 | 2 | 0.959 | 101 | 0.209 | inactive |
| CYP51A1 | 3 | -0.803 | 65.9 | -0.497 | inactive |

Continued.
| gene | siRNA no. | total luciferase, z-score | total luciferase, % of control | luciferase per cell, z-score | outcome |
| --- | --- | --- | --- | --- | --- |
| XRN2 | 1 | 0.256 | 87 | -0.09 | inactive |
| XRN2 | 2 | -1.87 | 44.7 | -2.09 | inactive |
| XRN2 | 3 | -1.45 | 53.1 | -0.515 | inactive |
| MAPKAPK2 | 1 | 0.252 | 86.9 | 1.08 | inactive |
| MAPKAPK2 | 2 | -0.792 | 66.1 | -1.13 | inactive |
| MAPKAPK2 | 3 | 1.67 | 115 | 1.09 | inactive |
| LTB4R2 | 1 | 0.396 | 89.8 | 0.786 | inactive |
| LTB4R2 | 2 | -0.463 | 72.7 | -0.952 | inactive |
| LTB4R2 | 3 | -0.465 | 72.6 | 1.02 | inactive |
| DNAI3 | 1 | 1.18 | 105 | 1.21 | inactive |
| DNAI3 | 2 | 0.825 | 98.3 | 0.458 | inactive |
| DNAI3 | 3 | 0.0503 | 82.9 | -0.246 | inactive |
| FAM133B | 1 | -0.764 | 66.7 | -0.699 | inactive |
| FAM133B | 2 | 0.431 | 90.5 | 0.0334 | inactive |
| FAM133B | 3 | 0.198 | 85.8 | -0.00339 | inactive |
| DPP4 | 1 | -0.25 | 76.9 | -0.23 | inactive |
| DPP4 | 2 | 1.14 | 105 | 0.479 | inactive |
| DPP4 | 3 | -1.14 | 59.2 | -0.436 | inactive |
